These are literature values, as cited in patent publication US9546164B2 (GENENTECH, INC., priority 2013, dated 2017).

The conditions of this series: administered topically; cited from earlier work.

Consider `CCN(CC)CC(=O)Nc1c(C)cccc1C` [lidocaine], for which the plasma concentrations result is “about 1 μM”.
